Measurements reported in PubChem BioAssay AID1159578 (Peter MacCallum Cancer Centre, 2015).

Aim: 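Genome-wide hunt for genes controlling movement of lymphatic endothelial cells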 (primary screen)
System: human lymphatic endothelial cells
Knock-down reagent: siRNA pool against human genes, 40 nM
Timing: 48 h after transfection
Read-out: 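High-content imaging of dye-stained cells in a scratch assay measures filled wound area and nuclei per well; duplicate means given as ratio to mock and robust z-score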
Scale: migration robust z-score: higher = faster migration into the scratch; nuclei per well: higher = more cells in the well
Rule for the call: 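Pools averaging fewer than 3300 nuclei are never called; remaining pools count as changed when migration robust z lies outside -2 to 2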
Meaning of the calls: active = migration changed; inactive = no migration change, or too few cells
In all, the deposit lists about 18,000 reagents; shown is a part drawn at random. Of all reagents, about 1,030 (5.7%) were called active. 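Inactive calls also include pools with fewer than 3300 nuclei, whose migration was not assessed.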 Raw values vary from plate to plate and are shown uncorrected. Unmarked entries are inactive. Further read-outs or replicates are left out here.

PIERCE1 (piercer of microtubule wall 1) gave migration robust z-score 0.73; migration class with cell-count check migration z between -2 and 2; enough cells; nuclei per well, duplicate mean 5620.
Depletion of SOCS1 (suppressor of cytokine signaling 1) came out at: migration robust z-score -0.21; migration class with cell-count check migration z between -2 and 2; enough cells; nuclei per well, duplicate mean 5367.
After knock-down of RABEP1 (rabaptin, RAB GTPase binding effector protein 1), the screen gave migration robust z-score 0.12; migration class with cell-count check migration z between -2 and 2; enough cells; nuclei per well, duplicate mean 5852.
ABHD17AP1 (ABHD17A pseudogene 1) showed migration robust z-score 0.47; migration class with cell-count check migration z between -2 and 2; enough cells; nuclei per well, duplicate mean 6132.
Depletion of MOV10L1 (Mov10 like RNA helicase 1) resulted in: migration robust z-score -0.96; migration class with cell-count check migration z between -2 and 2; enough cells; nuclei per well, duplicate mean 5206.
Silencing of GPR139 (G protein-coupled receptor 139) resulted in: migration robust z-score -0.05; migration class with cell-count check migration z between -2 and 2; enough cells; nuclei per well, duplicate mean 5817.
Against CLIC5 (CLIC family member 5) the deposit lists migration robust z-score -0.7; migration class with cell-count check migration z between -2 and 2; enough cells; nuclei per well, duplicate mean 4068.
For TSPAN7 (tetraspanin 7) the deposit lists migration robust z-score -0.1; migration class with cell-count check migration z between -2 and 2; enough cells; nuclei per well, duplicate mean 6120.
After knock-down of CASP5 (caspase 5) the results were migration robust z-score 1.27; migration class with cell-count check migration z between -2 and 2; enough cells; nuclei per well, duplicate mean 4932.
For RAMP1 (receptor activity modifying protein 1), the values are migration robust z-score 2.02 (active); migration class with cell-count check migration z above 2; enough cells; nuclei per well, duplicate mean 5692.
Against PAM16 (presequence translocase associated motor 16), the values are migration robust z-score 0.88; migration class with cell-count check migration z between -2 and 2; enough cells; nuclei per well, duplicate mean 5569.
After knock-down of PDYN (prodynorphin) the results were migration robust z-score 0.6; migration class with cell-count check migration z between -2 and 2; enough cells; nuclei per well, duplicate mean 6610.
Depletion of CPLX4 (complexin 4) resulted in: migration robust z-score 0.6; migration class with cell-count check migration z between -2 and 2; enough cells; nuclei per well, duplicate mean 6348.
Against EXOC5 (exocyst complex component 5), the values are migration robust z-score 0.43; migration class with cell-count check migration z between -2 and 2; enough cells; nuclei per well, duplicate mean 6201.
Depletion of PPAN-P2RY11 (PPAN-P2RY11 readthrough) resulted in: migration robust z-score 0.02; migration class with cell-count check migration z between -2 and 2; enough cells; nuclei per well, duplicate mean 5700.
Silencing of RAB26 (RAB26, member RAS oncogene family) came out at: migration robust z-score -0.2; migration class with cell-count check migration z between -2 and 2; enough cells; nuclei per well, duplicate mean 4140.
Silencing of GCKR (glucokinase regulator) came out at: migration robust z-score -0.78; migration class with cell-count check migration z between -2 and 2; enough cells; nuclei per well, duplicate mean 5915.
LINC02870 (long independently transcribed non-coding RNA 2870) showed migration robust z-score -0.05; migration class with cell-count check migration z between -2 and 2; enough cells; nuclei per well, duplicate mean 5236.
ADGRG7 (adhesion G protein-coupled receptor G7) showed migration robust z-score -0.5; migration class with cell-count check migration z between -2 and 2; enough cells; nuclei per well, duplicate mean 5166.
HOXB9 (homeobox B9) gave migration robust z-score -0.81; migration class with cell-count check migration z between -2 and 2; enough cells; nuclei per well, duplicate mean 5702.
Knock-down of DIO2 (iodothyronine deiodinase 2) came out at: migration robust z-score -0.78; migration class with cell-count check migration z between -2 and 2; enough cells; nuclei per well, duplicate mean 6604.
With knock-down of GNA12 (G protein subunit alpha 12), the record shows migration robust z-score -0.62; migration class with cell-count check migration z between -2 and 2; enough cells; nuclei per well, duplicate mean 4982.
MGLL (monoglyceride lipase) showed migration robust z-score -1.74; migration class with cell-count check migration z between -2 and 2; enough cells; nuclei per well, duplicate mean 5180.
For CPN1 (carboxypeptidase N subunit 1) the deposit lists migration robust z-score 0.96; migration class with cell-count check migration z between -2 and 2; enough cells; nuclei per well, duplicate mean 7280.
For TIMELESS (timeless circadian regulator) the deposit lists migration robust z-score 1.14; migration class with cell-count check migration z between -2 and 2; enough cells; nuclei per well, duplicate mean 4046.
After knock-down of KLRA1P (killer cell lectin like receptor A1, pseudogene), the screen gave migration robust z-score 0.65; migration class with cell-count check migration z between -2 and 2; enough cells; nuclei per well, duplicate mean 5326.
Against UBE2B (ubiquitin conjugating enzyme E2 B), the entry reads migration robust z-score 0; migration class with cell-count check migration z between -2 and 2; enough cells; nuclei per well, duplicate mean 4631.

In a second layout: results already given.
{"Target gene": "TSPAN7 (tetraspanin 7)", "migration robust z-score": -0.1, "migration class with cell-count check": "migration z between -2 and 2; enough cells", "nuclei per well, duplicate mean": 6120}
{"Target gene": "CASP5 (caspase 5)", "migration robust z-score": 1.27, "migration class with cell-count check": "migration z between -2 and 2; enough cells", "nuclei per well, duplicate mean": 4932}
{"Target gene": "RAMP1 (receptor activity modifying protein 1)", "migration robust z-score": "2.02 (active)", "migration class with cell-count check": "migration z above 2; enough cells", "nuclei per well, duplicate mean": 5692}
